Assay results as given in PMC6125358, “Mapping the Interface of a GPCR Dimer: A Structural Model of the A2A Adenosine and D2 Dopamine Receptor Heteromer” (Frontiers in Pharmacology, 2018).
These are yes or no findings as the source states them, for the method shown. Binding seen in cells or lysates may run through a third protein. Some binding calls cover weakened binding; strength is not graded here.

Protein sequences, listed by entry. Tags and fused reporters are not part of them. Lines headed by an entry give the natural chain unless they say otherwise; changes in a name come on top.
UniProt P61169: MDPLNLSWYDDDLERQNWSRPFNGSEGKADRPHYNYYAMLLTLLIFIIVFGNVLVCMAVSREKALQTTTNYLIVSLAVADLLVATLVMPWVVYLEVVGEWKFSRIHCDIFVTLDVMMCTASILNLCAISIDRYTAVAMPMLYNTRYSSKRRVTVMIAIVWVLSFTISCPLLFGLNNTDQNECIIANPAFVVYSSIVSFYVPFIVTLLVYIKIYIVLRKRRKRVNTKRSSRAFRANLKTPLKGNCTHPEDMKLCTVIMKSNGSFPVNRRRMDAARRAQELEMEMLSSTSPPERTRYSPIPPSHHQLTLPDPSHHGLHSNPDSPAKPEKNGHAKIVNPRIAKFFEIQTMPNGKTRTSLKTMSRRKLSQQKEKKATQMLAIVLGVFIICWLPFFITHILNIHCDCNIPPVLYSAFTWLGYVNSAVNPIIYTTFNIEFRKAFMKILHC
UniProt P30543: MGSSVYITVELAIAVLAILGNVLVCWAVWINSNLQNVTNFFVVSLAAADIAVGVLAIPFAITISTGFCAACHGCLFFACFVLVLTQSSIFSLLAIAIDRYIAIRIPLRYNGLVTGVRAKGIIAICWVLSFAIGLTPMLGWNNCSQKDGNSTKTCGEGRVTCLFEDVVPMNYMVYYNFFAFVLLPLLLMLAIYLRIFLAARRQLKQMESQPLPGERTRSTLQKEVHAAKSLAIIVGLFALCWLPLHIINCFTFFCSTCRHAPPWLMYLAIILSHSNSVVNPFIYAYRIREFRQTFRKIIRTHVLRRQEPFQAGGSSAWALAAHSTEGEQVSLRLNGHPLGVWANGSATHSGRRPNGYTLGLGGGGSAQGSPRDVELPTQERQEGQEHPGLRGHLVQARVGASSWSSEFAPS

Biological target: D2 dopamine receptor, endogenous in rat primary striatal neuronal cells (rat (endogenous in primary striatal neuronal cells)) (UniProt P61169)
Assay: proximity ligation; in situ PLA in rat primary striatal neuronal cells (endogenous receptors); vehicle or TM-V^A2A peptide

binding: binds
Substance: A2A adenosine receptor, endogenous in rat primary striatal neuronal cells (from UniProt P30543 1-410)
